Laboratory results as given in article PMC6283879, “Structural assembly of the megadalton-sized receptor for intestinal vitamin B12 uptake and kidney protein reabsorption” (Nature Communications, 2018).

Protein sequences, listed by entry. Tags and fused reporters are not part of them. Lines headed by an entry give the natural chain unless they say otherwise; changes in a name come on top.
UniProt O70244: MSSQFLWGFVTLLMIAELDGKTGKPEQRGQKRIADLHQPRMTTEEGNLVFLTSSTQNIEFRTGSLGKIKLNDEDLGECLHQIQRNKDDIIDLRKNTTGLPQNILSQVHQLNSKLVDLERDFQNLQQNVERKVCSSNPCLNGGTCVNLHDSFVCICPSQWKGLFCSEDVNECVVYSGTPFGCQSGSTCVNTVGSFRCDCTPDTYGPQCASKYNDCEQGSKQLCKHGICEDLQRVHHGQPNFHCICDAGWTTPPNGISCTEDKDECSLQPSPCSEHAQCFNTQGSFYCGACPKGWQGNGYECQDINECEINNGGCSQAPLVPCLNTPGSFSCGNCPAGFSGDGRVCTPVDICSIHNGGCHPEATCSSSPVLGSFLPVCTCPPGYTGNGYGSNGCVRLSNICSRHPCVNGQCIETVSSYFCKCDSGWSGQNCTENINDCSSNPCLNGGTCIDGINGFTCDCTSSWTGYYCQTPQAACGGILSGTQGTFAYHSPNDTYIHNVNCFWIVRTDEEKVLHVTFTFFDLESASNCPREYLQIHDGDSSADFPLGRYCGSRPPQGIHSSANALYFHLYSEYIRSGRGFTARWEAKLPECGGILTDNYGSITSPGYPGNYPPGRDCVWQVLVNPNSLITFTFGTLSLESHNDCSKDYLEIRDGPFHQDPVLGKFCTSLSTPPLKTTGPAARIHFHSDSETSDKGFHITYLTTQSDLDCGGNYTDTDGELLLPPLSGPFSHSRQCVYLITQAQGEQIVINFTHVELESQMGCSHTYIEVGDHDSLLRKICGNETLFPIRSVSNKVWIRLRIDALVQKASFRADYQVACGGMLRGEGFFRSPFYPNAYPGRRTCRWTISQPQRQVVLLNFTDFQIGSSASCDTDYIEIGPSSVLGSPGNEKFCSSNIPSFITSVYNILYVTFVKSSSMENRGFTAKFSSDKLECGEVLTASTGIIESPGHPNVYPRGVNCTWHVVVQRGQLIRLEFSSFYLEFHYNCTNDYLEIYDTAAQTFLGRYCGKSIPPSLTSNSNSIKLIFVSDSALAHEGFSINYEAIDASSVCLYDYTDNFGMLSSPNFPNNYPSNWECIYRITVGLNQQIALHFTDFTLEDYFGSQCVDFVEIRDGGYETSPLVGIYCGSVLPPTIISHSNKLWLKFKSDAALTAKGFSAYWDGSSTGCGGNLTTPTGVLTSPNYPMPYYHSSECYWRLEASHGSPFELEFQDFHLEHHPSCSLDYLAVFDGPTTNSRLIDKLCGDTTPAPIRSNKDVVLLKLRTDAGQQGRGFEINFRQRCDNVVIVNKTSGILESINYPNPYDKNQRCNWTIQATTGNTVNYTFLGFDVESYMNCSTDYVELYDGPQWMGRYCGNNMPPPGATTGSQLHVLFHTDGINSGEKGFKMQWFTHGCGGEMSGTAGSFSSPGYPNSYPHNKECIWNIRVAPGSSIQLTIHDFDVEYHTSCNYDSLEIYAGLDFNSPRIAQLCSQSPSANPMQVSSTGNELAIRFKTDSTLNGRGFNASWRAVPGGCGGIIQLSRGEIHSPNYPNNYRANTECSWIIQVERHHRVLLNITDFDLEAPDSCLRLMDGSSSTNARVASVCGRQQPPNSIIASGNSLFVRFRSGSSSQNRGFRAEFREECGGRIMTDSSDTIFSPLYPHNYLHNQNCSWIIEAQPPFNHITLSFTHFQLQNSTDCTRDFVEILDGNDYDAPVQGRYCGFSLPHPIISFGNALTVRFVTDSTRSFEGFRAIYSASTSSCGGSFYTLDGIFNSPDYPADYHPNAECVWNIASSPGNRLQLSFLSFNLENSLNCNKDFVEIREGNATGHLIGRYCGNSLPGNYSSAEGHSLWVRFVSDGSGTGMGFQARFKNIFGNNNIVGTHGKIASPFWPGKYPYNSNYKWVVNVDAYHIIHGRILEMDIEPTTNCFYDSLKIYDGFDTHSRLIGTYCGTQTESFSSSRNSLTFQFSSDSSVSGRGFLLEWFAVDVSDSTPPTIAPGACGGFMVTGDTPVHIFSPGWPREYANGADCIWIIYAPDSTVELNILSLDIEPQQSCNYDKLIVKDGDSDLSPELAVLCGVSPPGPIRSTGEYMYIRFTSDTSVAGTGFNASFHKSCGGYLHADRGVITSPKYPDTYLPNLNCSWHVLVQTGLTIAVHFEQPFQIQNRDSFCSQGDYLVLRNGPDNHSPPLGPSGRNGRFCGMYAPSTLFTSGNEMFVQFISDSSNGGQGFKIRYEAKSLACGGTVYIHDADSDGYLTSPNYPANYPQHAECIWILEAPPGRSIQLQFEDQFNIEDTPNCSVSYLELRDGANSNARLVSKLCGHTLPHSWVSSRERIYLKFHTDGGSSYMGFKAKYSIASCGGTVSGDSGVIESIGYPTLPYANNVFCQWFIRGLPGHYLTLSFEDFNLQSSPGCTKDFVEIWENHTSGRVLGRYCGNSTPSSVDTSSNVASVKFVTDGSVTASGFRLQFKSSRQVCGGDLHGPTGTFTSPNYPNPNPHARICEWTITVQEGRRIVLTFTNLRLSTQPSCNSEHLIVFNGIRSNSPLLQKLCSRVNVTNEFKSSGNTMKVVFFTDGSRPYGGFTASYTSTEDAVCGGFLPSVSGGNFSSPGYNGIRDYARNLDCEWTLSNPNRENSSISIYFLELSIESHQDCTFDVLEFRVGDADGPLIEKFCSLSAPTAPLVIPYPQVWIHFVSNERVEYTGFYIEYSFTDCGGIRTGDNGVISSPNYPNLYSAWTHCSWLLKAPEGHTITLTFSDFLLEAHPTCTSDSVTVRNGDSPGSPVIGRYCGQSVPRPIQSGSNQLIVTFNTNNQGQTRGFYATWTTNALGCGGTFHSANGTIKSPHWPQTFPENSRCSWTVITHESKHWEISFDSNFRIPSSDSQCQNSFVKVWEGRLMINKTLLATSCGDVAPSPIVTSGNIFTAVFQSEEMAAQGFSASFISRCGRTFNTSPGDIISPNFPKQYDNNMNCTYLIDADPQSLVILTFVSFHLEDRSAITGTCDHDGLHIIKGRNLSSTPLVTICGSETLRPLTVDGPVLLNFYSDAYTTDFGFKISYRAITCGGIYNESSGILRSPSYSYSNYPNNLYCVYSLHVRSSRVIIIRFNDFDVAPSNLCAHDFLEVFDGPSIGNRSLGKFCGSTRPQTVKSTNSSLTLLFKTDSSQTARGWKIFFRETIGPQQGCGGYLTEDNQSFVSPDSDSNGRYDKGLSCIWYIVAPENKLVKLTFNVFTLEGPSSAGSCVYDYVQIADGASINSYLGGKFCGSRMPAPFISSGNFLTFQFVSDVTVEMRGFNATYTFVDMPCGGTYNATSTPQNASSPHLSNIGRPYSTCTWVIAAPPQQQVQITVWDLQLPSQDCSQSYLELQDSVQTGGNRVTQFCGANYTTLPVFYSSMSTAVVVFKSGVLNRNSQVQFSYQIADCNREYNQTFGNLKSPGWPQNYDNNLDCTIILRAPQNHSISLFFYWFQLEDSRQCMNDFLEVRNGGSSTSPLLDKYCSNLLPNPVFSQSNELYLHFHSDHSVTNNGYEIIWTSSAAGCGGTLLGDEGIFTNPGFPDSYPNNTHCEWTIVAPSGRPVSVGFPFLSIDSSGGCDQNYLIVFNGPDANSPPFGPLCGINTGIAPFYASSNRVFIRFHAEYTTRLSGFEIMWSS

What was measured:
Assay in all cases: co-IP; CHO K1 cells co-transfected with cubilin(1–1389) and V5-tagged AMN; 1% Triton X-100 lysate in PBS pH 7.4; anti-V5 agarose beads, 2 hours at room temperature; blot with anti-rat cubilin and anti-V5
[1] = target: T1, V5-tagged AMN(1–454) S37A (human) (UniProt Q9BXJ7)
T1 sequence: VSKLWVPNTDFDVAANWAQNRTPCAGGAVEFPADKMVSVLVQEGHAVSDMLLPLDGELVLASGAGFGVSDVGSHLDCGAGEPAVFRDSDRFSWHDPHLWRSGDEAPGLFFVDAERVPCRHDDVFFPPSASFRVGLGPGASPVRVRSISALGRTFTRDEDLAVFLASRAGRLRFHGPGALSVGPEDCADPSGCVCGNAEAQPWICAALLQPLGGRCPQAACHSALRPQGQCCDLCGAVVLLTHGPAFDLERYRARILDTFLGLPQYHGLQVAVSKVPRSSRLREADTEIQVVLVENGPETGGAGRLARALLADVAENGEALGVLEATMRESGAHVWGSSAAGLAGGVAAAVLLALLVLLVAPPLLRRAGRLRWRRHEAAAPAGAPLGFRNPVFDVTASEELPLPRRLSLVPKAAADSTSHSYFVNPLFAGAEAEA

[2] = target: T2, V5-tagged AMN(1–454) S37A/T41I double mutant (human) (UniProt Q9BXJ7)
T2 sequence: T1 sequence with T22I

[3] = target: T3, V5-tagged AMN(1–454), wild type (human) (UniProt Q9BXJ7)
T3 sequence: T1 sequence with A18S

[4] = target: T4, V5-tagged AMN(1–454) T41I (human) (UniProt Q9BXJ7)
T4 sequence: T1 sequence with A18S, T22I

- binding [1]: binds
- binding [2]: binds
- binding [3]: binds
- binding [4]: binds
Substance: cubilin (amino acids 1–1389) (from UniProt O70244) (domain or fragment)

Substitutions are numbered along the chain they refer to. Results are given in words; binding and its absence hold for the method and conditions named. In cells and extracts the contact can be indirect. Binding calls can cover weak binding; strength is not graded here. Sequences can lack the tags named with a protein.
